Data as given in patent US4863932A, “Squalene oxide cyclase inhibitors and therapeutic use thereof” (Somatogenetics International, Inc., priority 1988, dated 1989).
At least one structure is not confirmed: it was looked up by name or label, or the drawing left a doubt.

System: LDL receptor of HepG2 cells
Experiment: Effect on the LDL receptor of HepG2 cells (125I-LDL binding, internalization, degradation)
Format: cell-based
Details: mevalonate with mevinolin
Experimental: We have compared LA-I-140 and LN-I-83 with the conventional squalene oxide cyclase inhibitors U18666A and TMD by studying their effect on the LDL receptor of HepG2 cells.
The assay is essentially as described by Goldstein, Basu and Brown (Methods in Enzymology, 98: 241-260, 1983). Briefly, confluent cultures of HepG2 cells are incubated for 24 hours in cholesterol-free medium to induce LDL receptors. Test compounds are added to the medium at appropriate concenrations during this incubation. At the end of 24 hours [^125 I]labeled LDL (200-400 cpm/ng) is added to the medium (10-50 ug LDL protein/ml) and the cells are incubated at 37° C. for 3-6 hours.
(a) Degradation of ^125 I-LDL: The culture medium is removed from the monolayer of cells and undegraded LDL is precipitated with 10% (w/v) trichloroacetic acid.
The supernatant fraction is treated with 5% (w/v) silver nitrate to precipitate any free iodine. The radioactivity in the final supernatant fraction, which represents monoiodotyrosine, the proteolytic degradation product of ^125 I-LDL, is measured in a gamma counter.
(b) Specific binding of ^125 I-LDL: The cell monolayers are washed in a cold room (4° C.) three times rapidly with ice-cold buffer B (150 mM NaCl, 50 mM TrisHCl, pH 7.4 and 2 mg/ml bovine serum albumin). […] An aliquot of buffer D is counted to determine the amount of ^125 I-LDL released from cell surface. […]

## CC(O)(CCO)CC(=O)O (stereo not shown) [Mevalonate]
  effect of mevalonate on the mevinolin stimulation of LDL receptors: effectively suppresses the mevinolin stimulation of LDL receptors
